PubChem BioAssay AID1508597 – Cure First, 2020

- Aim: 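Survival screen with siRNA in ovarian cancer cells derived from patients, with or without rucaparib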 (primary screen)
- Cell system: human ovarian carcinoma lines grown from tumours: OCI-P5x (papillary serous) and OCI-C5x (clear cell)
- Reagents: siRNA pool against human genes, 1.25 pmol siRNA per well
- Timing: 72 h or 96 h, depending on the cell culture
- Conditions: rucaparib 20 µM (about IC30) or vehicle, present until read-out
- Rucaparib or vehicle: Rucaparib
- Cell line: OCI-C5x (clear cell)
- Detection: 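Luminescent ATP-based viability assay read 72 or 96 h after transfection, depending on culture, given as normalised percent viability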
- Scale: viability, normalised: higher = more viable cells remaining
- Rule for the call: 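a well counts as a hit if its normalised viability is under 80 percent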
- Meaning of the calls: active = viability under 80%; inactive = viability 80% or more
This is an unselected part of the about 2,100 reagents, in one setting of the screen. 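Calls flag viability under 80% in either arm, not effects specific to rucaparib; the reference for percent is not stated.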 Unmarked entries are inactive. Reagent sequences are not shown. Not given: the 100% reference.

Target gene | technical replicate | viability, normalised (%)
NEK10 | 1 | 47.7 (active)
NEK10 | 2 | 52.8 (active)
NEK10 | 3 | 58.8 (active)
NIN | 1 | 63.3 (active)
NIN | 2 | 46.1 (active)
NIN | 3 | 38.2 (active)
CHD1 | 1 | 65.5 (active)
CHD1 | 2 | 63.8 (active)
CHD1 | 3 | 76.3 (active)
IP6K1 | 1 | 35 (active)
IP6K1 | 2 | 53.3 (active)
IP6K1 | 3 | 36.9 (active)
DYRK2 | 1 | 55 (active)
DYRK2 | 2 | 48.4 (active)
DYRK2 | 3 | 51.1 (active)
STK39 | 1 | 59.9 (active)
STK39 | 2 | 58.8 (active)
STK39 | 3 | 54.2 (active)

The list goes on, starting with the last 2 of the part before.
Target gene | technical replicate | viability, normalised (%)
STK39 | 2 | 58.8 (active)
STK39 | 3 | 54.2 (active)
ZNF541 | 1 | 59.1 (active)
ZNF541 | 2 | 51.6 (active)
ZNF541 | 3 | 49.8 (active)
PRPS2 | 1 | 47.7 (active)
PRPS2 | 2 | 66 (active)
PRPS2 | 3 | 62.4 (active)
JMJD8 | 1 | 44.6 (active)
JMJD8 | 2 | 41.5 (active)
JMJD8 | 3 | 47.2 (active)
ADCK1 | 1 | 68.2 (active)
ADCK1 | 2 | 59.2 (active)
ADCK1 | 3 | 88
CDK11B | 1 | 45 (active)
CDK11B | 2 | 51.3 (active)
CDK11B | 3 | 54.9 (active)
SUPT6H | 1 | 37.1 (active)
SUPT6H | 2 | 27 (active)
SUPT6H | 3 | 24.6 (active)
XAB2 | 1 | 33.8 (active)
XAB2 | 2 | 43.7 (active)
XAB2 | 3 | 40 (active)
